Data published in paper PMC9411159.
These are yes or no findings as the source states them, for the method shown. In cells and extracts the contact can be indirect. A yes stands for co-enrichment or nearness to the bait. Other partners may have been found.

Target: T1, AT-rich interacting domain 3A (ARID3A) (human (endogenous in Huh7)) (UniProt Q99856)
T1 sequence: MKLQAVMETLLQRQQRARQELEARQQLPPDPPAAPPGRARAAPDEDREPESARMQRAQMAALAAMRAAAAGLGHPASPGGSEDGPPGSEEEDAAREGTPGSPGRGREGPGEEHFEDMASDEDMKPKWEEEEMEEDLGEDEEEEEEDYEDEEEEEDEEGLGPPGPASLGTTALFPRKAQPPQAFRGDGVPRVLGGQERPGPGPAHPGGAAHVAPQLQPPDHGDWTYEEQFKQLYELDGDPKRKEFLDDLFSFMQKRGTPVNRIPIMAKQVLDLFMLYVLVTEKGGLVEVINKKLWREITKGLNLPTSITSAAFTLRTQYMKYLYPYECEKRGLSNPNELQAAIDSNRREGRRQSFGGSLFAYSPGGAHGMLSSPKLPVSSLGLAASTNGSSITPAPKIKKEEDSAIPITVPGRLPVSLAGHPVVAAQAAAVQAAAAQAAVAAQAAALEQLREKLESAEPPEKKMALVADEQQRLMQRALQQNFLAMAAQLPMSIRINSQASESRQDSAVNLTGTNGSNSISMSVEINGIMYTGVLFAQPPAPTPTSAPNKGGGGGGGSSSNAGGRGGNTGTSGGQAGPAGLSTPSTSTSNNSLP
Assay: affinity purification with mass spectrometry; Co-IP of ARID3A followed by LC-MS in Huh7 cells; IgG control; hits had more than 1 unique peptide and no IgG-specific peptides

B1: centrosomal protein 131 kDa (CEP131) (protein, UniProt Q9UPN4 1-1083)
chain: MKGTRAIGSVPERSPAGVDLSLTGLPPPVSRRPGSAATTKPIVRSVSVVTGSEQKRKVLEATGPGGSQAINNLRRSNSTTQVSQPRSGSPRPTEPTDFLMLFEGSPSGKKRPASLSTAPSEKGATWNVLDDQPRGFTLPSNARSSSALDSPAGPRRKECTVALAPNFTANNRSNKGAVGNCVTTMVHNRYTPSERAPPLKSSNQTAPSLNNIIKAATCEGSESSGFGKLPKNVSSATHSARNNTGGSTGLPRRKEVTEEEAERFIHQVNQATVTIQRWYRHQVQRRGAGAARLEHLLQAKREEQRQRSGEGTLLDLHQQKEAARRKAREEKARQARRAAIQELQQKRALRAQKASTAERGPPENPRETRVPGMRQPAQELSPTPGGTAHQALKANNTGGGLPAAGPGDRCLPTSDSSPEPQQPPEDRTQDVLAQDAAGDNLEMMAPSRGSAKSRGPLEELLHTLQLLEKEPDVLPRPRTHHRGRYAWASEVTTEDDASSLTADNLEKFGKLSAFPEPPEDGTLLSEAKLQSIMSFLDEMEKSGQDQLDSQQEGWVPEAGPGPLELGSEVSTSVMRLKLEVEEKKQAMLLLQRALAQQRDLTARRVKETEKALSRQLQRQREHYEATIQRHLAFIDQLIEDKKVLSEKCEAVVAELKQEDQRCTERVAQAQAQHELEIKKLKELMSATEKARREKWISEKTKKIKEVTVRGLEPEIQKLIARHKQEVRRLKSLHEAELLQSDERASQRCLRQAEELREQLEREKEALGQQERERARQRFQQHLEQEQWALQQQRQRLYSEVAEERERLGQQAARQRAELEELRQQLEESSSALTRALRAEFEKGREEQERRHQMELNTLKQQLELERQAWEAGRTRKEEAWLLNREQELREEIRKGRDKEIELVIHRLEADMALAKEESEKAAESRIKRLRDKYEAELSELEQSERKLQERCSELKGQLGEAEGENLRLQGLVRQKERALEDAQAVNEQLSSERSNLAQVIRQEFEDRLAASEEETRQAKAELATLQARQQLELEEVHRRVKTALARKEEAVSSLRTQHEAAVKRADHLEELLEQHRRPTPSTK
B1 was tested, and the binding was “binds”.
